{"sequences": {"note": "Amino acid sequences for entries named in this document (tags omitted). Residues count along the entry.", "UniProt P02769, residues 25-607": "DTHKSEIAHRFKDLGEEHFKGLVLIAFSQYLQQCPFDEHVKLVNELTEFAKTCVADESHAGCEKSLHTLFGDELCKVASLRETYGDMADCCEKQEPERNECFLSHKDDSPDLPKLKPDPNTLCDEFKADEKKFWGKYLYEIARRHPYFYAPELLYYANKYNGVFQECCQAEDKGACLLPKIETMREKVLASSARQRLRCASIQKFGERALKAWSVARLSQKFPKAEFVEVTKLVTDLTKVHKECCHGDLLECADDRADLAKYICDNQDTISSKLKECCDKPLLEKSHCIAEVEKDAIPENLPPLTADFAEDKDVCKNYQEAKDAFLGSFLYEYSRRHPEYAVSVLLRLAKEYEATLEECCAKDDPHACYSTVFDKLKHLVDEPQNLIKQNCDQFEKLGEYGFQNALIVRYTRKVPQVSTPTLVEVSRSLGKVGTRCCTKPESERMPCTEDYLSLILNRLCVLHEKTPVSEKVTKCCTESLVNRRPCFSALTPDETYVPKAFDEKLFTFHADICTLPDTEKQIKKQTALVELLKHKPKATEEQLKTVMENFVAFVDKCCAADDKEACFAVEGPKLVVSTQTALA"}, "source": "paper PMC5751621", "binders": {"B1": {"name": "peanut agglutinin (protein, UniProt P02872 24-273)", "chain": "AETVSFNFNSFSEGNPAINFQGDVTVLSNGNIQLTNLNKVNSVGRVLYAMPVRIWSSATGNVASFLTSFSFEMKDIKDYDPADGIIFFIAPEDTQIPAGSIGGGTLGVSDTKGAGHFVGVEFDTYSNSEYNDPPTDHVGIDVNSVDSVKTVPWNSVSGAVVKVTVIYDSSTKTLSVAVTNDNGDITTIAQVVDLKAKLPERVKFGFSASGSLGGRQIHLIRSWSFTSTLITTTRRSIDNNEKKIMNMASA"}}, "target": "bovine serum albumin (bovine) (UniProt P02769)", "assay": "SPR; SPR imaging (Horiba SPRi Lab+); BSA (1%) on the naked areas of the sensor; lectins injected at 95 nM in solution, covalently linked to gold NPs or captured by antibody-functionalized gold NPs; 10 mM HEPES pH 7.4, 35 uL/min; read after washing with buffer; both purified", "note": "Results are given in words; binding and its absence hold for the method and conditions named."}
{"binder": "B1", "values": [{"measurement": "binding", "result": "no binding (tested: 95 nM)"}]}
